# Values of other authors in patent US11096902B1, “Transdermal film formulations and methods of use” (King Abdulaziz University, priority 2021, dated 2021).
# Details: oral, with food
smiles,measurement,value
"CC(C)c1c(C(=O)Nc2ccccc2)c(-c2ccccc2)c(-c2ccc(F)cc2)n1CC[C@@H](O)C[C@@H](O)CC(=O)[O-].CC(C)c1c(C(=O)Nc2ccccc2)c(-c2ccccc2)c(-c2ccc(F)cc2)n1CC[C@@H](O)C[C@@H](O)CC(=O)[O-].[Ca+2] [ATC, Atorvastatin calcium]",reduction of maximum drug concentration (Cmax) by concomitant intake of food,9%
